Data as given in the supplement of paper PMC6411743.
± gives the standard deviation of the averaged measurements. Only a part is listed here, and it is no random draw.

Protein sequences, listed by entry. Tags and fused reporters are not part of them. Lines headed by an entry give the natural chain unless they say otherwise; changes in a name come on top.
UniProt Q14790: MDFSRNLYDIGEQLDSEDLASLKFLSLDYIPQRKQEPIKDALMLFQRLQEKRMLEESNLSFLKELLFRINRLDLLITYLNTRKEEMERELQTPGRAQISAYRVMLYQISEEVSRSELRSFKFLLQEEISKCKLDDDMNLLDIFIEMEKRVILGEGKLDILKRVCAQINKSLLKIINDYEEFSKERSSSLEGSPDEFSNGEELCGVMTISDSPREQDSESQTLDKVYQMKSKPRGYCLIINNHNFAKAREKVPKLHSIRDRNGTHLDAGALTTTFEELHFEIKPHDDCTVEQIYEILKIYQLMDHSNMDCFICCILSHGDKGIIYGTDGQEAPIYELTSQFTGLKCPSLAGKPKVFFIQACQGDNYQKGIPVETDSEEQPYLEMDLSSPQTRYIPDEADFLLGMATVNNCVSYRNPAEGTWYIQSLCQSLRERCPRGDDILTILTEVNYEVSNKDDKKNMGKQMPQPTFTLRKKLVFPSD
UniProt Q13443: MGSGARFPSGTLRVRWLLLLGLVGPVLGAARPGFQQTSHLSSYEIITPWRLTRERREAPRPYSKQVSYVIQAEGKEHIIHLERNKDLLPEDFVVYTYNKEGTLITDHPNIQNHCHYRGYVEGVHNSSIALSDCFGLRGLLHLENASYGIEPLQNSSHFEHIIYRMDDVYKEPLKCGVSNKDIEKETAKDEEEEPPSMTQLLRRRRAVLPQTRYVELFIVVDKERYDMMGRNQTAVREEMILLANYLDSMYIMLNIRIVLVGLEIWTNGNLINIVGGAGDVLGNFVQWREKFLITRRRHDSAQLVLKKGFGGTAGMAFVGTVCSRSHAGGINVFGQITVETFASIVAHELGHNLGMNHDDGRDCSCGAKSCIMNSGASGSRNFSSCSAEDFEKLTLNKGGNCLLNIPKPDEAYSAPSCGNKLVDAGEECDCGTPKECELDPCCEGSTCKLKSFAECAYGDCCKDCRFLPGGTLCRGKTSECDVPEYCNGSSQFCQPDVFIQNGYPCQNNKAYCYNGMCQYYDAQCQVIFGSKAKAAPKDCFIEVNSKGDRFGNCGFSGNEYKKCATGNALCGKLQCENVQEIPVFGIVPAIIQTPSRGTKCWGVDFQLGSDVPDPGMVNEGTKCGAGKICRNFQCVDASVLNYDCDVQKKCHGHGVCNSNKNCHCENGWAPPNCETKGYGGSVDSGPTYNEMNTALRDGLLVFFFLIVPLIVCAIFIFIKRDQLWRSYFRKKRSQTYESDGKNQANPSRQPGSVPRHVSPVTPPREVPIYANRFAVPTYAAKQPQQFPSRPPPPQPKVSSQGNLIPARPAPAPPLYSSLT
UniProt Q14694, whole entry: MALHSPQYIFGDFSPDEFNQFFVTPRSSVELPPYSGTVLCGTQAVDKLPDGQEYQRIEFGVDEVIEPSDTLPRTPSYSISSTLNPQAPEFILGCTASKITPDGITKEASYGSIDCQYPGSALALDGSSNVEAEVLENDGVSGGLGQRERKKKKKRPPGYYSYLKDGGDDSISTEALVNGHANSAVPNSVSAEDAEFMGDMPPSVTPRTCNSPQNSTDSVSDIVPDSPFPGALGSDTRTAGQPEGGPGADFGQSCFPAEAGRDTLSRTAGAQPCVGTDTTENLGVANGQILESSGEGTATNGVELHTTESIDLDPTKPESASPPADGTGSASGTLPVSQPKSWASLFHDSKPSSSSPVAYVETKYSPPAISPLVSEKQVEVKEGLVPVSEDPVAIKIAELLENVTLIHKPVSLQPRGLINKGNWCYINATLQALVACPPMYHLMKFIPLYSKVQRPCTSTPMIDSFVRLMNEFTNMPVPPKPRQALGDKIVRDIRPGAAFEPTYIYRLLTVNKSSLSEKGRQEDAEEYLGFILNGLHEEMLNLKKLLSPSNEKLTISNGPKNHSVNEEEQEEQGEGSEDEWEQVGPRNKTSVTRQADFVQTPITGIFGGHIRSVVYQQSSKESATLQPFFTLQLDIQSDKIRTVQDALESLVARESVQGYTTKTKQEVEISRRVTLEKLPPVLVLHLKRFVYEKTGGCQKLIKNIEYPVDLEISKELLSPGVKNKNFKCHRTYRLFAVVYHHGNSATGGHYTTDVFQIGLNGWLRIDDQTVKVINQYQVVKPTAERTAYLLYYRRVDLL
UniProt Q14257: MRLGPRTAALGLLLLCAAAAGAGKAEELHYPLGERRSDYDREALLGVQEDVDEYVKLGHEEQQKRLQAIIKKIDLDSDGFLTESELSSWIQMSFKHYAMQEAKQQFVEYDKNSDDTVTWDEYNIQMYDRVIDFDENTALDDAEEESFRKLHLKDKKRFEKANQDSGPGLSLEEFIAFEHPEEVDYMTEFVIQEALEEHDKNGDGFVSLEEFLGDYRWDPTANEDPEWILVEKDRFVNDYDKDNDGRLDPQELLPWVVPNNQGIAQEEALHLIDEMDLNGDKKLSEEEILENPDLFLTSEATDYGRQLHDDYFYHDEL
UniProt Q14457, whole entry: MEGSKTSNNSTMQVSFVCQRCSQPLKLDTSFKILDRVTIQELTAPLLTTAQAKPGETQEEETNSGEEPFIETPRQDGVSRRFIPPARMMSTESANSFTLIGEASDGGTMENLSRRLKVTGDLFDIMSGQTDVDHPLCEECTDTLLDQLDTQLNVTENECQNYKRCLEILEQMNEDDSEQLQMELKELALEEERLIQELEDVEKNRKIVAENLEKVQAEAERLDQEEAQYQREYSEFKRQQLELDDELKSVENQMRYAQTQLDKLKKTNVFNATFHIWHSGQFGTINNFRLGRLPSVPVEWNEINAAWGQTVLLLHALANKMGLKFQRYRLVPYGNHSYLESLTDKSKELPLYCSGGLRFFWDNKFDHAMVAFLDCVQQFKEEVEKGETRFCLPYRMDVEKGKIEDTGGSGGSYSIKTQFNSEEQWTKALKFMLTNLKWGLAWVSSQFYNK
UniProt Q12797: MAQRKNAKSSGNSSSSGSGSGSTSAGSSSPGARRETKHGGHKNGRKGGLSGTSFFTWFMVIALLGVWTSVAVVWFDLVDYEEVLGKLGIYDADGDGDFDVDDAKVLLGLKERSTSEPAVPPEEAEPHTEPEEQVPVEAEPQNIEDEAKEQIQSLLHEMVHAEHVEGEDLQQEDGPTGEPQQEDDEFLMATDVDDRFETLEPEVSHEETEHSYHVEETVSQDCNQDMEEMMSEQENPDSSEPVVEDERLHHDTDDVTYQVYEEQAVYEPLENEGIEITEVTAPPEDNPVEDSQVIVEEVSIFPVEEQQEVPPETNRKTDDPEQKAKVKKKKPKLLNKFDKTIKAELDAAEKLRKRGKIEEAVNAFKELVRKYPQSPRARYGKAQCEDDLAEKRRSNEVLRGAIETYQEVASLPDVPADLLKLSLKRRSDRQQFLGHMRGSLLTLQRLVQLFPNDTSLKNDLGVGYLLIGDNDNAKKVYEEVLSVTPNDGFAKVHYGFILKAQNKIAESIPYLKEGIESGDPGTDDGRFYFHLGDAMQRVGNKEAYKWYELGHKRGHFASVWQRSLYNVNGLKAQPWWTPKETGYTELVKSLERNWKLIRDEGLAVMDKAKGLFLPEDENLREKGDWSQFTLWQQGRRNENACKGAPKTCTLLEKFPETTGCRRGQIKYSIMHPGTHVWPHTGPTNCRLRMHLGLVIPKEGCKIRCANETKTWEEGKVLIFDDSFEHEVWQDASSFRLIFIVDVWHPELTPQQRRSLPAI
UniProt Q13216, whole entry: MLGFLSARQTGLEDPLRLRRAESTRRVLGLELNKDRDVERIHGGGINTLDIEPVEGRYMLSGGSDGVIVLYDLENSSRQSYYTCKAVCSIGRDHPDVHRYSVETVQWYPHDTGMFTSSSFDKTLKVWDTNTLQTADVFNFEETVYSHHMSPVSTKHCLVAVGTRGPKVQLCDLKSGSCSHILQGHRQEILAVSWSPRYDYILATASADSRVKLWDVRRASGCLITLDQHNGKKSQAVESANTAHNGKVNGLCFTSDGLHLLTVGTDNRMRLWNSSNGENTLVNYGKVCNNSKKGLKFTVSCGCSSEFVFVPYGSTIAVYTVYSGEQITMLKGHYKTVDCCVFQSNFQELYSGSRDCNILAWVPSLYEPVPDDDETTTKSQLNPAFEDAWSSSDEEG
UniProt Q13042, whole entry: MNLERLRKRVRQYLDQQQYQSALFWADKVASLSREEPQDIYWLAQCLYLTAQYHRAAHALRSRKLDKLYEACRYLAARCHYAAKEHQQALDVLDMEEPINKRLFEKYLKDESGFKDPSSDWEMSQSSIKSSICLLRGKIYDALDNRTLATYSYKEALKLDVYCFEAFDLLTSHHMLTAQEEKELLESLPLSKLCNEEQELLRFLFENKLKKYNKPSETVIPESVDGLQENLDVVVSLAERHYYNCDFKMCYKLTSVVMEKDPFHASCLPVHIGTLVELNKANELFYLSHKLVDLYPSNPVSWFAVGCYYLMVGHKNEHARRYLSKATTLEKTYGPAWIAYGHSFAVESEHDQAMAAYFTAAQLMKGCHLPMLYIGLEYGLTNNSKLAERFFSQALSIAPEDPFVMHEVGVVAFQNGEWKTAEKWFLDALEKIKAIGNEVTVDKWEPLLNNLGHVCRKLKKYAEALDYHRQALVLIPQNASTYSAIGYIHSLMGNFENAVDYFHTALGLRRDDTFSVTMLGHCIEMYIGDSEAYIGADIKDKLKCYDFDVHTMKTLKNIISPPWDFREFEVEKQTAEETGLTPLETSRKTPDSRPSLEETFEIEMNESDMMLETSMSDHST
UniProt Q14061: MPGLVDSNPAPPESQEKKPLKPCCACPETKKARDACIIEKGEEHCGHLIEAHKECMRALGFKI
UniProt Q13144, whole entry: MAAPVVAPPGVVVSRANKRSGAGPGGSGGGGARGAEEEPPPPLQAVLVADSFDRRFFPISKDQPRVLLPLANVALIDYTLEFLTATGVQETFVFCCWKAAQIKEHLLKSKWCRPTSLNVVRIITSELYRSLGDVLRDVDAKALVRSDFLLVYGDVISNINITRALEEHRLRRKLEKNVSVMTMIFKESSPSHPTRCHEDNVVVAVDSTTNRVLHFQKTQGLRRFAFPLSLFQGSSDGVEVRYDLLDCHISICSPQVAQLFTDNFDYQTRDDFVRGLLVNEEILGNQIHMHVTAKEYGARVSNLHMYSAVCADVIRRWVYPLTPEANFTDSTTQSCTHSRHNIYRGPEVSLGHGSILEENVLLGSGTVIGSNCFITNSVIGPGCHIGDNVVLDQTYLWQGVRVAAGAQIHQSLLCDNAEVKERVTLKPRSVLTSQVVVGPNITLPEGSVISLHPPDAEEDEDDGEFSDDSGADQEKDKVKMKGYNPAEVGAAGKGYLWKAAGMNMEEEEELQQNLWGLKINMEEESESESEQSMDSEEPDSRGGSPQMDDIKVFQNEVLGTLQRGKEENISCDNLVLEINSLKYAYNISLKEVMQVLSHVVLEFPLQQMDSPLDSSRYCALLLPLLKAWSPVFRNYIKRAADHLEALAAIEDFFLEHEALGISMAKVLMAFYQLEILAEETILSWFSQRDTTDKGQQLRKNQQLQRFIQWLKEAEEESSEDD
UniProt Q13158: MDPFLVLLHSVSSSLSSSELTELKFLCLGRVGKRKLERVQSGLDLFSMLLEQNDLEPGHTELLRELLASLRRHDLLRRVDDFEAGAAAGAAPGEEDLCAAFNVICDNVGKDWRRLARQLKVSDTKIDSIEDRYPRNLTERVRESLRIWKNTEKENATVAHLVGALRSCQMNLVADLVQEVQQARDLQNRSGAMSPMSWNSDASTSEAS
UniProt Q14764, whole entry: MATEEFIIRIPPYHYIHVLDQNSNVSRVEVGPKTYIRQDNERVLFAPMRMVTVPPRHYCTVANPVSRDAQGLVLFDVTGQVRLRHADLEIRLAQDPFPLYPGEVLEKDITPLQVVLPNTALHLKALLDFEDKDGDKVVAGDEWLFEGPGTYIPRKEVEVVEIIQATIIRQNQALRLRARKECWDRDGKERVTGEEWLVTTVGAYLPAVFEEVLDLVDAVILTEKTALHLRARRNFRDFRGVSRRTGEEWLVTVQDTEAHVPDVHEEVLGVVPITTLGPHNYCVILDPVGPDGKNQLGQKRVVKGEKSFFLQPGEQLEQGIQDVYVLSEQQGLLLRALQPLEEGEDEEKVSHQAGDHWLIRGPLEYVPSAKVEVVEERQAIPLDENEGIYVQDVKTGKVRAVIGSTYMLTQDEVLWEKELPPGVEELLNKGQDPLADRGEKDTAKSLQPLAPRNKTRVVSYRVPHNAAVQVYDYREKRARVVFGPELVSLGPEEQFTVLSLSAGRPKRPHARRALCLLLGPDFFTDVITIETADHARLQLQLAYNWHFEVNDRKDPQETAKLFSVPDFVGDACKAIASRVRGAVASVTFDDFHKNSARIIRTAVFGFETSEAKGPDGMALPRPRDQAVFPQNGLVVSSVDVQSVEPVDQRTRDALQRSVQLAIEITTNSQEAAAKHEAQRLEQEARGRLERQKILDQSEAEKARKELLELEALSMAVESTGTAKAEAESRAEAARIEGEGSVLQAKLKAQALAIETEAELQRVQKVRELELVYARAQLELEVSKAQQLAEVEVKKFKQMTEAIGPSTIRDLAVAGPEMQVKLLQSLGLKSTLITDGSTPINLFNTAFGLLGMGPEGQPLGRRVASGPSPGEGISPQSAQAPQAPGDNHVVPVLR

Compound: Nc1ncnc2c1ncn2[C@@H]1O[C@H](COP(=O)(O)OP(=O)(O)NP(=O)(O)O)[C@@H](O)[C@H]1O [adenylyl imidodiphosphate]
Experiment: NP40-soluble protein abundance relative to vehicle (solubility fold change) (ratio); higher = more soluble protein in presence of AMP-PNP
In short: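 Crude Jurkat lysate, prepared by Dounce homogenisation, was exposed to eight concentrations from 0.1 to 10 mM for 10 min at room temperature and then 3 min at 37 °C. Solubilisation used 0.8% NP40 with benzonase for 60 min at 4 °C, followed by ultracentrifugation and TMT labelling of the supernatant for LC-MS/MS. After vsn normalisation of intensities, each value is the fold change against the detergent-processed vehicle within each replicate, across three independent experiments.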

Target	NP40-soluble protein abundance (concentration: 1mM)	NP40-soluble protein abundance (concentration: 2mM)	NP40-soluble protein abundance (concentration: 4mM)	NP40-soluble protein abundance (concentration: 6mM)	NP40-soluble protein abundance (concentration: 8mM)	NP40-soluble protein abundance (concentration: 10mM)
MCM6 (UniProt Q14566)	0.901 ± 0.017	0.813 ± 0.091	0.874 ± 0.043	0.883 ± 0.025	0.903 ± 0.037	0.833 ± 0.058
TBL3 (UniProt Q12788)	1.07 ± 0.02	1.15 ± 0.05	1.21 ± 0.023	1.35 ± 0.027	1.46 ± 0.024	1.53 ± 0.075
ACAP1 (UniProt Q15027)	0.977 ± 0.064	0.9326 ± 0.0073	1 ± 0.051	1.02 ± 0.083	1.02 ± 0.09	1 ± 0.045
SAFB2 (UniProt Q14151)	1.08 ± 0.05	1.18 ± 0.064	1.15 ± 0.044	1.2 ± 0.08	1.2 ± 0.093	1.3 ± 0.12
UniProt Q14596 and related entries	0.981 ± 0.029	1 ± 0.014	0.993 ± 0.017	0.987 ± 0.018	0.988 ± 0.016	0.967 ± 0.01
CDC20 (UniProt Q12834)	1.02 ± 0.025	1.007 ± 0.008	0.985 ± 0.012	1.02 ± 0.018	1.021 ± 0.0069	1.03 ± 0.026
UniProt Q14790 and related entries	0.977 ± 0.051	0.956 ± 0.045	0.976 ± 0.016	0.957 ± 0.044	0.986 ± 0.027	0.954 ± 0.0099
UniProt Q12933 and related entries	0.987 ± 0.021	0.961 ± 0.032	0.989 ± 0.032	0.969 ± 0.048	0.944 ± 0.02	0.97 ± 0.046
UniProt Q14687 and related entries	1.06 ± 0.067	1.1 ± 0.022	1.04 ± 0.056	0.992 ± 0.056	0.982 ± 0.044	1.01 ± 0.062
ADAM9 (UniProt Q13443)	1 ± 0.025	1.01 ± 0.044	0.993 ± 0.041	0.989 ± 0.026	0.978 ± 0.025	0.989 ± 0.042
NMI (UniProt Q13287)	1.01 ± 0.019	1.013 ± 0.0084	1.03 ± 0.014	1.008 ± 0.0075	1 ± 0.042	1.02 ± 0.069
GRAP (UniProt Q13588)	0.968 ± 0.026	0.901 ± 0.098	0.988 ± 0.037	0.947 ± 0.018	0.987 ± 0.037	0.963 ± 0.038
UniProt Q13043	1.03 ± 0.01	1.02 ± 0.015	1.005 ± 0.0051	0.979 ± 0.028	0.9559 ± 0.0058	0.961 ± 0.038
UniProt Q08AM6 and related entries	0.986 ± 0.029	0.963 ± 0.034	0.996 ± 0.02	0.947 ± 0.068	0.943 ± 0.082	0.979 ± 0.059
TRIM25 (UniProt Q14258)	1.03 ± 0.06	1.07 ± 0.097	1.04 ± 0.037	1.09 ± 0.017	1.07 ± 0.051	1.06 ± 0.015
ZNF638 (UniProt Q14966)	1.06 ± 0.02	1.11 ± 0.068	1.09 ± 0.02	1.1 ± 0.069	1.09 ± 0.048	1.15 ± 0.064
UniProt Q14671 and related entries	1 ± 0.027	1.05 ± 0.017	1 ± 0.067	0.98 ± 0.041	0.927 ± 0.032	0.972 ± 0.053
TTLL12 (UniProt Q14166)	1.026 ± 0.0028	0.927 ± 0.14	1.01 ± 0.04	0.964 ± 0.018	1.02 ± 0.027	0.944 ± 0.034
UniProt Q14934 and related entries	1.01 ± 0.019	1.03 ± 0.059	1.02 ± 0.011	1.01 ± 0.049	1 ± 0.018	1.02 ± 0.032
UniProt Q14669-2|Q14669-3	1.04 ± 0.03	1.07 ± 0.031	1.11 ± 0.041	1.12 ± 0.062	1.12 ± 0.031	1.18 ± 0.045

Two successive entries out of the list so far, quoted:
Target	NP40-soluble protein abundance (concentration: 1mM)	NP40-soluble protein abundance (concentration: 2mM)	NP40-soluble protein abundance (concentration: 4mM)	NP40-soluble protein abundance (concentration: 6mM)	NP40-soluble protein abundance (concentration: 8mM)	NP40-soluble protein abundance (concentration: 10mM)
TTLL12 (UniProt Q14166)	1.026 ± 0.0028	0.927 ± 0.14	1.01 ± 0.04	0.964 ± 0.018	1.02 ± 0.027	0.944 ± 0.034
UniProt Q14934 and related entries	1.01 ± 0.019	1.03 ± 0.059	1.02 ± 0.011	1.01 ± 0.049	1 ± 0.018	1.02 ± 0.032

The list continues.

Target	NP40-soluble protein abundance (concentration: 1mM)	NP40-soluble protein abundance (concentration: 2mM)	NP40-soluble protein abundance (concentration: 4mM)	NP40-soluble protein abundance (concentration: 6mM)	NP40-soluble protein abundance (concentration: 8mM)	NP40-soluble protein abundance (concentration: 10mM)
FRG1 (UniProt Q14331)	1.06 ± 0.029	1.04 ± 0.041	1.09 ± 0.026	1.08 ± 0.022	1.13 ± 0.029	1.12 ± 0.023
WTAP (UniProt Q15007)	1.06 ± 0.026	1.1 ± 0.097	1.03 ± 0.016	1.01 ± 0.052	0.994 ± 0.066	1 ± 0.022
UniProt Q13564 and related entries	1.01 ± 0.033	1.02 ± 0.042	1.01 ± 0.036	0.982 ± 0.015	0.987 ± 0.064	0.997 ± 0.057
CIRBP (UniProt Q14011)	1.04 ± 0.033	1.09 ± 0.05	1.1 ± 0.078	1.09 ± 0.025	1.12 ± 0.068	1.21 ± 0.13
TSTA3 (UniProt Q13630)	0.984 ± 0.018	0.97 ± 0.035	0.991 ± 0.078	0.974 ± 0.033	0.995 ± 0.072	0.969 ± 0.041
UniProt Q14008 and related entries	1.02 ± 0.0027	1.06 ± 0.068	1.025 ± 0.0049	1.03 ± 0.018	1.016 ± 0.0082	1.046 ± 0.009
UniProt Q14157 and related entries	1.04 ± 0.019	1.12 ± 0.064	1.07 ± 0.021	1.11 ± 0.033	1.08 ± 0.013	1.13 ± 0.028
UniProt Q14694 and related entries	1.08 ± 0.052	1.13 ± 0.062	1.21 ± 0.12	1.25 ± 0.17	1.29 ± 0.18	1.3 ± 0.2
UniProt Q14257 and related entries	1.02 ± 0.015	1.03 ± 0.032	0.921 ± 0.011	0.861 ± 0.022	0.838 ± 0.034	0.807 ± 0.049
UniProt Q13330 and related entries	1 ± 0.037	0.979 ± 0.092	1 ± 0.041	1 ± 0.046	1.04 ± 0.074	1.04 ± 0.093
UniProt Q13469 and related entries	1.01 ± 0.025	1.03 ± 0.018	1.02 ± 0.03	0.986 ± 0.024	0.9525 ± 0.0032	0.991 ± 0.011
BECN1 (UniProt Q14457)	1.02 ± 0.021	1.03 ± 0.0019	1.003 ± 0.00075	0.987 ± 0.055	0.939 ± 0.031	0.965 ± 0.045
SLFN5 (UniProt Q08AF3)	1.1 ± 0.071	1.07 ± 0.15	1.11 ± 0.13	1.06 ± 0.12	1.07 ± 0.12	1.06 ± 0.11
UniProt Q14680 and related entries	1.01 ± 0.017	1.02 ± 0.024	0.994 ± 0.022	1.01 ± 0.0026	1.01 ± 0.022	1.02 ± 0.044
UniProt Q13905 and related entries	1 ± 0.019	1.03 ± 0.067	0.996 ± 0.011	0.965 ± 0.024	0.982 ± 0.044	0.987 ± 0.04
PSMD2 (UniProt Q13200)	0.891 ± 0.014	0.849 ± 0.068	0.854 ± 0.074	0.858 ± 0.087	0.851 ± 0.086	0.816 ± 0.12
UniProt Q12797 and related entries	0.974 ± 0.029	1 ± 0.081	1 ± 0.031	1.04 ± 0.058	1.03 ± 0.011	1.07 ± 0.044
ITPR2 (UniProt Q14571)	0.965 ± 0.036	0.922 ± 0.067	0.965 ± 0.05	0.931 ± 0.093	0.954 ± 0.12	0.966 ± 0.15
CSTF3 (UniProt Q12996)	1.02 ± 0.014	0.983 ± 0.038	1.07 ± 0.042	1.08 ± 0.057	1.11 ± 0.09	1.12 ± 0.087
SNX1 (UniProt Q13596)	1 ± 0.021	0.998 ± 0.017	0.978 ± 0.032	1.02 ± 0.034	1.02 ± 0.028	1.03 ± 0.017

Target	NP40-soluble protein abundance (concentration: 1mM)	NP40-soluble protein abundance (concentration: 2mM)	NP40-soluble protein abundance (concentration: 4mM)	NP40-soluble protein abundance (concentration: 6mM)	NP40-soluble protein abundance (concentration: 8mM)	NP40-soluble protein abundance (concentration: 10mM)
NFX1 (UniProt Q12986)	1.031 ± 0.0067	1.07 ± 0.014	1.05 ± 0.047	1.07 ± 0.031	1.1 ± 0.046	1.13 ± 0.044
UniProt Q14C86-6|Q14C86 and related entries	0.987 ± 0.032	0.988 ± 0.048	0.986 ± 0.042	0.986 ± 0.017	0.969 ± 0.029	0.988 ± 0.038
GAMT (UniProt Q14353)	1.02 ± 0.022	1.01 ± 0.034	1.02 ± 0.032	1 ± 0.03	1.005 ± 0.01	1.01 ± 0.037
UniProt Q15056-2|Q15056	0.999 ± 0.037	1.03 ± 0.035	0.945 ± 0.14	0.94 ± 0.081	0.929 ± 0.087	0.884 ± 0.21
TMED1 (UniProt Q13445)	1 ± 0.069	0.992 ± 0.031	0.991 ± 0.043	0.949 ± 0.028	0.968 ± 0.024	0.955 ± 0.024
ERCC8 (UniProt Q13216)	0.983 ± 0.02	0.996 ± 0.021	1.01 ± 0.028	0.9696 ± 0.0035	0.995 ± 0.022	0.995 ± 0.027
UniProt Q13042 and related entries	0.961 ± 0.02	0.892 ± 0.14	0.971 ± 0.058	0.942 ± 0.081	0.958 ± 0.071	0.931 ± 0.11
EIF4EBP2 (UniProt Q13542)	1.04 ± 0.052	1.042 ± 0.0084	1.06 ± 0.028	1.07 ± 0.056	1.05 ± 0.018	1.08 ± 0.0052
UniProt Q13247 and related entries	0.993 ± 0.04	1.01 ± 0.031	0.928 ± 0.053	0.942 ± 0.073	0.901 ± 0.1	0.908 ± 0.12
UniProt Q14444 and related entries	1.12 ± 0.041	1.22 ± 0.17	1.16 ± 0.064	1.19 ± 0.13	1.19 ± 0.094	1.25 ± 0.08
COX17 (UniProt Q14061)	1 ± 0.028	1.05 ± 0.045	1 ± 0.018	0.925 ± 0.029	0.911 ± 0.015	0.928 ± 0.053
UniProt Q14289-2|Q14289	0.988 ± 0.027	0.956 ± 0.058	0.978 ± 0.018	0.903 ± 0.024	0.908 ± 0.021	0.888 ± 0.014
UniProt Q13422 and related entries	0.984 ± 0.014	0.992 ± 0.022	0.954 ± 0.019	0.989 ± 0.027	0.989 ± 0.026	1.03 ± 0.024
EIF2B5 (UniProt Q13144)	0.963 ± 0.048	0.969 ± 0.038	1.01 ± 0.053	0.997 ± 0.036	1.01 ± 0.031	1.01 ± 0.053
UniProt Q13033-2	0.985 ± 0.057	1.01 ± 0.022	0.9743 ± 0.0056	0.986 ± 0.02	0.957 ± 0.029	0.975 ± 0.025
FADD (UniProt Q13158)	1.044 ± 0.0098	1.01 ± 0.018	1.04 ± 0.036	1.02 ± 0.075	1.08 ± 0.021	1.06 ± 0.048
MVP (UniProt Q14764)	1.03 ± 0.047	1.04 ± 0.05	0.995 ± 0.05	1.02 ± 0.046	1.01 ± 0.037	1.02 ± 0.074
UniProt Q12789 and related entries	1.03 ± 0.023	0.999 ± 0.016	1.03 ± 0.037	0.984 ± 0.043	0.985 ± 0.068	1 ± 0.062
PLS1 (UniProt Q14651)	1.04 ± 0.052	1.03 ± 0.041	1.05 ± 0.068	1.11 ± 0.041	1.08 ± 0.047	1.08 ± 0.034
GALNT1 (UniProt Q10472)	0.972 ± 0.035	0.949 ± 0.061	0.961 ± 0.02	0.952 ± 0.011	0.958 ± 0.035	0.9308 ± 0.007
